# Source: PubChem BioAssay (NCATS)
# Protein sequences, listed by entry. Tags and fused reporters are not part of them. Lines headed by an entry give the natural chain unless they say otherwise; changes in a name come on top.
# UniProt P14618, whole entry, looked up: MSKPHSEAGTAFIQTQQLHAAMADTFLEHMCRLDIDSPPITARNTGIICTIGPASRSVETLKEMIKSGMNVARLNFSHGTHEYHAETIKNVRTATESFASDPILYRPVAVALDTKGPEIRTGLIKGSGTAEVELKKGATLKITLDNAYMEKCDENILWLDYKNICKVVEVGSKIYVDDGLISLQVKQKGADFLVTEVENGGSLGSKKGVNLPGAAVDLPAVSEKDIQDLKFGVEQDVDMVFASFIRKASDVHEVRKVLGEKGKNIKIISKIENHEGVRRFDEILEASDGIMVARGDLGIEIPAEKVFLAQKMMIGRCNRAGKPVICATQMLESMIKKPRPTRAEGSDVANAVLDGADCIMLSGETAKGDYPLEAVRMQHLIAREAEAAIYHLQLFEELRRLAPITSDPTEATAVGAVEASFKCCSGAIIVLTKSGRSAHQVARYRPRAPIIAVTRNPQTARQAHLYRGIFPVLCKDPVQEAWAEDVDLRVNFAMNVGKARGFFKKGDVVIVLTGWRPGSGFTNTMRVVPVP
# UniProt Q12809: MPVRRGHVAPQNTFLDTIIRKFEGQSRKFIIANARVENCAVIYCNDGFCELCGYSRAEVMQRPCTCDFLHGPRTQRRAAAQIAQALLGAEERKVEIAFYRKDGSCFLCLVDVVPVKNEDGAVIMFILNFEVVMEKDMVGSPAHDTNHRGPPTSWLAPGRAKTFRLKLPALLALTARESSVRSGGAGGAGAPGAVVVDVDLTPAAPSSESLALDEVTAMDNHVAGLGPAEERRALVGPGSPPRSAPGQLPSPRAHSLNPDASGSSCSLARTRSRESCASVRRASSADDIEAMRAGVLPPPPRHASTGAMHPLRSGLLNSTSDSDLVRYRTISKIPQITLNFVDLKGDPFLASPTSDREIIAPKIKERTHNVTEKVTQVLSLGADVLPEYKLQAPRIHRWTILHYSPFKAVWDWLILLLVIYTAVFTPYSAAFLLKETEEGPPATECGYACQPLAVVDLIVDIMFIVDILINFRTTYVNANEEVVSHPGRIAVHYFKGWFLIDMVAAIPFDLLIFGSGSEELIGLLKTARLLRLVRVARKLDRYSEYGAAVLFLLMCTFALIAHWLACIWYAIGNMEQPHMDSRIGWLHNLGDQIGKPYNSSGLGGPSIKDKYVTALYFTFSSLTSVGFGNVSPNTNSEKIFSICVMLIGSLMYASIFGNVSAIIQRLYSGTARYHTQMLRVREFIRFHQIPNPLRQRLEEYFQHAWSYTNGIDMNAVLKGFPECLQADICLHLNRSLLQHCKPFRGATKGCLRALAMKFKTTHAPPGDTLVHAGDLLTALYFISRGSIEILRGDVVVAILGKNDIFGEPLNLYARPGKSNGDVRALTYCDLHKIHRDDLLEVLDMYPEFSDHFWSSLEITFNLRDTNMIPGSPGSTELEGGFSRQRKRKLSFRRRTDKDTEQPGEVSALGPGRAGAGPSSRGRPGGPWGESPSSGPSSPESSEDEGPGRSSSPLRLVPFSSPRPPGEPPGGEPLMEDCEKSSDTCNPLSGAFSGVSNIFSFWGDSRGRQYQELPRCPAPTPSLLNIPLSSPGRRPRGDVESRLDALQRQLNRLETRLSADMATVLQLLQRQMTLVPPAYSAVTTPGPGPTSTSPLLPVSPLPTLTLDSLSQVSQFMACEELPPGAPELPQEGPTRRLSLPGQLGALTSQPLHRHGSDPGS
# UniProt P35557, whole entry, looked up: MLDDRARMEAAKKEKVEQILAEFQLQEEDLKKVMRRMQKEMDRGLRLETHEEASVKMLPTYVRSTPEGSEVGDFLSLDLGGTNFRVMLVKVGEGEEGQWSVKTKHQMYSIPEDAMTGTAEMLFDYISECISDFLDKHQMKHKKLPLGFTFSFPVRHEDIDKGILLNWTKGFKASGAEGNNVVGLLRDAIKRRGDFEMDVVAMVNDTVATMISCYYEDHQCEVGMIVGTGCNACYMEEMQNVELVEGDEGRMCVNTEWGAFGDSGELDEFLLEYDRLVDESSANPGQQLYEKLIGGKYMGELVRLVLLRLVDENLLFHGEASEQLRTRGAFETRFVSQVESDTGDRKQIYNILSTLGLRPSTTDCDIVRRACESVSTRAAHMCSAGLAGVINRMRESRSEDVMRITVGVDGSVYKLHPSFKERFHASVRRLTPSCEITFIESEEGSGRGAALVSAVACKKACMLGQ
# UniProt Q14397: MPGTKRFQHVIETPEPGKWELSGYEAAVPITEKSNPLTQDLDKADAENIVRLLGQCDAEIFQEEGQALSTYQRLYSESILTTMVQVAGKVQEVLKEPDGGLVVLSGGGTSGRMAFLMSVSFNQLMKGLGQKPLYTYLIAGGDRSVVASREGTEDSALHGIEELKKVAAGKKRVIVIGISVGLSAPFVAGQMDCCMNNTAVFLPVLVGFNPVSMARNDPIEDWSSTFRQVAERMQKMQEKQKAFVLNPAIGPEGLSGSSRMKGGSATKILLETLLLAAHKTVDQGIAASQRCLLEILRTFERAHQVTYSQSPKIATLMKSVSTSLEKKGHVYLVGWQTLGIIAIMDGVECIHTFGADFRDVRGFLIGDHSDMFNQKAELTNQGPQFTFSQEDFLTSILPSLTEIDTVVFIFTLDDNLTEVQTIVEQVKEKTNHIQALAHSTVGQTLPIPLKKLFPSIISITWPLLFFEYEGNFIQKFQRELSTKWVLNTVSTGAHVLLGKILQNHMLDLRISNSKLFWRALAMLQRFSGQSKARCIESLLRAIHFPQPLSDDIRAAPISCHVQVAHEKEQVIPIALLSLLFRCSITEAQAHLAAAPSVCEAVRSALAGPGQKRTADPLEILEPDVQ
# UniProt Q9GZX7: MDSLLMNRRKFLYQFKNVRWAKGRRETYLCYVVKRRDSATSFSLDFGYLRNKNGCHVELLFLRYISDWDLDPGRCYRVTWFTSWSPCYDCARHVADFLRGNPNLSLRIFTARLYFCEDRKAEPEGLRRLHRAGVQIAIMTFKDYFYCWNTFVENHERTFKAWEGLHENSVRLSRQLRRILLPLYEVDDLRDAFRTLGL
# UniProt Q8NER1, whole entry, looked up: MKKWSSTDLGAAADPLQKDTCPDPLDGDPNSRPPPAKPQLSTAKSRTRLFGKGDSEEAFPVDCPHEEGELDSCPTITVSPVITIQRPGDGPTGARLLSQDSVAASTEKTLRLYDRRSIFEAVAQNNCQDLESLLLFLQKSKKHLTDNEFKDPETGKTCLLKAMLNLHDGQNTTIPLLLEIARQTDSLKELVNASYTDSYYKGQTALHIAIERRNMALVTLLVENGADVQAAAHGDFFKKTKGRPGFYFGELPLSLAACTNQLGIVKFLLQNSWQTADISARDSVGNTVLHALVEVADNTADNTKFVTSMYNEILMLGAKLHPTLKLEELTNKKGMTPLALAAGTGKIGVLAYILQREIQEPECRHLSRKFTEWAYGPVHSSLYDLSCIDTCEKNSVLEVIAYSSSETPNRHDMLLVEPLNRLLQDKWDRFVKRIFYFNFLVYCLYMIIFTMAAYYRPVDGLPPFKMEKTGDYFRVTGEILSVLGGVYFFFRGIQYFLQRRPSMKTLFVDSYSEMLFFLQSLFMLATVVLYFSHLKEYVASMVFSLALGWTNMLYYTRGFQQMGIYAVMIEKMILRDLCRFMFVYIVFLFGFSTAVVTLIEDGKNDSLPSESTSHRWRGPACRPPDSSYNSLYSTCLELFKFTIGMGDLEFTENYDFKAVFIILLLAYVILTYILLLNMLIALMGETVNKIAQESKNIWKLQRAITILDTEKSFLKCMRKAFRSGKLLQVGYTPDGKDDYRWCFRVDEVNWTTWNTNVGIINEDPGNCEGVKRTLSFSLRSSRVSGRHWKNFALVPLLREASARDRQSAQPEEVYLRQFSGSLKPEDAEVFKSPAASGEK
# UniProt P04150: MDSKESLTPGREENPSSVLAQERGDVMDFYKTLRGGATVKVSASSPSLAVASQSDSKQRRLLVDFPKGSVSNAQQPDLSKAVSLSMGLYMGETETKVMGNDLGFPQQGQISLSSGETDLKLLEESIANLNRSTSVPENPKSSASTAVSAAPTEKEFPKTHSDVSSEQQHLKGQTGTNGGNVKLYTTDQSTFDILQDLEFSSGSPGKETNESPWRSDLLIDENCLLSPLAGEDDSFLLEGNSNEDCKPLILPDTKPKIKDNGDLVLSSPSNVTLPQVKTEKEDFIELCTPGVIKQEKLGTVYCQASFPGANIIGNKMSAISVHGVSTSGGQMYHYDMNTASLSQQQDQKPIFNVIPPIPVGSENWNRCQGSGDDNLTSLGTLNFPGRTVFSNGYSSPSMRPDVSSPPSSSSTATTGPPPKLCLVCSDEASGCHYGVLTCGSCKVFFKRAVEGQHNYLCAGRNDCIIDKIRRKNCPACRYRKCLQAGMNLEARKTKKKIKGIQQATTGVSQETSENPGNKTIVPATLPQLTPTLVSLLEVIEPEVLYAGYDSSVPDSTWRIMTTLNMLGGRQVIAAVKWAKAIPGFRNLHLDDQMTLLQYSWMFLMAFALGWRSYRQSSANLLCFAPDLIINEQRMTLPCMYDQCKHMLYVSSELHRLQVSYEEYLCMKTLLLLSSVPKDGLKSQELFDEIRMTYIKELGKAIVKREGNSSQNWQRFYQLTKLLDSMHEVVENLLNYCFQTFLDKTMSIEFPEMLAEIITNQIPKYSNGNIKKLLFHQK
# “And” between values parts separate entries of the source, which are not always exact repeats. Identical values can stand only once. Inconclusive results, whose numbers are uncertain, are shown with a selection of clear calls. For some assays here: A potency beside an inconclusive call is a rough fit, not a confirmed value. The source made the active and inactive calls. Unless noted, the call rests on the fitted dose curve; in most records, active means well fitted curve in the direction sought with a large enough effect; inconclusive means small, poorly fitted or top-dose-only effect, or another doubt; inactive means no such curve, though single readings can be large; an effect the other way counts as inactive or inconclusive.
# Columns and labels:
# [1] = target: Pyruvate kinase PKM (Homo sapiens) (UniProt P14618); test: qHTS Assay for Activators of Human Muscle Pyruvate Kinase (AID 954; active means well fitted curve in the direction sought with a large enough effect, not every such curve was filed as active; inconclusive means small, poorly fitted or top-dose-only effect, or effect the other way, or another doubt; inactive means no such curve, though single readings can be large or run the other way); conditions: purified human muscle pyruvate kinase, luciferase-coupled luminescence, 1 h; activity change, negative = inhibition: at 57.5 µM (top of the series)
# Procedure, shortened: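 A coupled luminescent readout tracked ATP made from ADP by purified PKM2. Final conditions included 0.1 nM enzyme, PEP and ADP at 0.5 and 0.1 mM, pH 7.2 imidazole buffer with BSA, and a one-hour room-temperature reaction.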
# [2] = target: Voltage-gated inwardly rectifying potassium channel KCNH2 (Homo sapiens) (UniProt Q12809); test: qHTS Assay for Small Molecule Inhibitors of the Human hERG Channel Activity (AID 588834);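 further: lower thallium flux fluorescence means stronger hERG block; nearly all actives have a fitted effect of over 50% in size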; further: potency means the concentration at half of the fitted maximal effect; on activity change, negative = inhibition: top concentration of the series differs between compounds
# Procedure, shortened: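 Homogeneous FluxOR thallium flux assay using hERG-expressing U2OS cells (BacMam). Compound treatment about 10 minutes preceded stimulation; reduced fluorescence taken as channel block.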
# DIV14 = test: qHTS profiling for inhibitors of Plasmodium falciparum proliferation (AID 504749); further: nearly all actives have a fitted effect of over 60% in size; further: potency means the concentration at half of the fitted maximal effect; conditions: P. falciparum in erythrocytes, SYBR Green DNA, 72 h; series mostly up to 28.7 µM
# Procedure, shortened: (§1)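 In a 72 h erythrocytic culture (37 C, humidified, 5% CO2) at 2.5% hematocrit and 0.3% starting parasitemia, compounds were tested; SYBR Green I in detergent lysis buffer stained parasite DNA overnight.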
# [3] = High Content Imaging Cell-Based qHTS for Inhibitors of the mTORC1 Signaling Pathway in MEF (Tsc2-/-, p53-/-) Cells (AID 2666);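 further: percent of cells scored positive for phospho-rpS6 Ser235/236 immunostaining by imaging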
# Procedure, shortened: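 Tsc2-/-, p53-/- MEFs (empty-vector stable) grown in DMEM + 10% FBS were exposed to compounds for 24 hrs at 37 degree Celsius, fixed, and stained with Alexa-488 anti-phospho-rpS6 Ser235/236 plus Hoechst. Imaging gave the percentage of positive cells per well.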
# [4] = target: Hexokinase-4 (Homo sapiens) + Glucokinase regulatory protein (Homo sapiens) (UniProt P35557+Q14397); test: qHTS assay for inhibitors of recombinant human GCK-GKRP interaction: HTRF assay (AID 743207); conditions: recombinant GCK-GKRP HTRF binding, 60 min; Potency: with sorbitol-6-phosphate unless noted; activity change, negative = inhibition: at 57.5 µM (top of the series), with sorbitol-6-phosphate unless noted; further: potency means the concentration at half of the fitted maximal effect
# Procedure, shortened: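 Titration screening format: recombinant GST-GCK and FLAG-GKRP at 5 nM, S6P at 2 uM, labelled anti-tag antibodies, 60 min at RT, dual-wavelength HTRF readout.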
# [5] = target: Single-stranded DNA cytosine deaminase (Homo sapiens) (UniProt Q9GZX7); test: Validation qHTS assay for inhibitors of Activation Induced Cytidine Deaminase (AID): AID signal (AID 1347429); further: potency means the concentration at half of the fitted maximal effect
# Procedure, shortened: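 Compounds (up to 114 uM final) are tested against AID plus UDG using DJC20/DJC23 FRET substrate. Reactions incubate 4 hr at room temperature, receive NaOH for 30 min, and are read at Ex 540/Em 590 nm.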
# [6] = Validation qHTS assay for inhibitors of Activation Induced Cytidine Deaminase (AID): UDG Counterscreen signal (AID 1347427); further: potency means the concentration at half of the fitted maximal effect
# Procedure, shortened: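 Fluorescence at 560 nm excitation, 665 nm emission reports UDG signal after 250 mM NaOH (2x) addition and 30 min. Enzymes (AID 1 uM, UDG 2 U/mL, at 4/3x) preincubated 10 min with compound, then 4 h with 4x 250 nM DJC20/DJC23 substrate at room temperature.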
# [7] = target: Transient receptor potential cation channel subfamily V member 1 (Homo sapiens) (UniProt Q8NER1); test: HTS Assay for Compounds that Act as Enhancers of the Vanilloid Receptor 1 (AID 488979)
# Procedure, shortened: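 Calcium influx kinetics via Fluo-8 (480/520 nm) in TRPV1-expressing cells, 2000/well cultured overnight at 35.5C. Compound-alone read 3 min (agonist phase), followed by EC20 capsaicin challenge for 2 min (enhancer phase).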
# [8] = qHTS of pediatric cancer cell lines to identify multiple opportunities for drug repurposing: Primary screen for NB-EBc1 cells (AID 1347095); further: potency means the concentration at half of the fitted maximal effect
# Procedure, shortened: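 Luminescence from CellTiter-Glo served as readout of metabolically active cells after 48 h compound exposure. Titrations: MIPE 11-point, from 0.78 nM; NPC 8-point, from 0.59 nM (final). Concentration-response curves came straight from the primary screen.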
# [9] = tested on: Zika virus NS2B-NS3 protease (linked construct); test: Primary screen NINDS Rhodamine qHTS for Zika virus inhibitors (AID 1347160); further: nearly all actives have a fitted effect of over 55% in size; further: potency means the concentration at half of the fitted maximal effect
# Procedure, shortened: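 Aprotinin served as in-plate control. Conditions: 25 nM linked NS2B-NS3, pH 8.0 Tris buffer, titrated compounds, 15 min preincubation and 15 min reaction with 1.5 microM Rhod110 substrate at room temperature.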
# [10] = HEK-293 Cancer Cell Toxicity qHTS against the NCATS CANVASS Library (AID 1347355); further: nearly all actives have a fitted effect of over 65% in size; further: potency means the concentration at half of the fitted maximal effect
# Procedure, shortened: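 Using an ATP-based luminescent reagent after three days of treatment, toxicity is scored across an eleven-concentration range in wells holding 1000 cells each.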
# [11] = Secretion counterscreen for inhibitors of the SERCaMP assay screened against the NCATS CANVASS Library (AID 1347390);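 further: light from luciferase secreted into medium read as a measure of general secretion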; further: potency means the concentration at half of the fitted maximal effect
# Procedure, shortened: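 Natural products are titrated in an 11-point series up to 77 uM onto SH-SY5Y-GLuc STOP cells for 20 h. Secreted reporter activity is measured as coelenterazine-driven luminescence, with Brefeldin A on each plate.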
# [12] = qHTS for inhibitors of Wild type Zika virus screened against the NCATS CANVASS Library (AID 1347396); further: potency means the concentration at half of the fitted maximal effect
# Procedure, shortened: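 Vero 766 cells, 1000/well, o/n attach; cpds pin-transferred (11-pt qHTS); WT Zika added; 72 h, 37C, 5% CO2; CellTiter Glo lumi. Uninfected + vehicle = 100% inhibition.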
# [13] = qHTS of pediatric cancer cell lines to identify multiple opportunities for drug repurposing: Primary screen for BT-12 cells (AID 1347101); further: nearly all actives have a fitted effect of over 25% in size; further: potency means the concentration at half of the fitted maximal effect
# Procedure, shortened: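 Cells (500-1,000/well) rested 5 h, then received compounds for 48 h; metabolically active cells were measured by CellTiter-Glo luminescence. Final concentrations spanned up to 46 µM (MIPE, 11-point) or 0.59 nM-46 µM (NPC, 8-point) in primary screens, 11-point in follow-ups.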
# [14] = HepG2 cells viability qHTS for Zika virus inhibitors (AID 1347168); further: potency means the concentration at half of the fitted maximal effect
# Procedure, shortened: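 Luminescent ATP readout (CellTiter Glo) after 30 min at 37 degrees C gives viability; cells in DMEM + 4% FBS were treated 24 to 48 hours with compound, following overnight attachment.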
# [15] = target: Glucocorticoid receptor (Homo sapiens) (UniProt P04150); test: GR-GFP Redistribution (AID 450;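 active means compounds whose dose series gives a full or clear partial fitted curve of increased nuclear translocation; inconclusive means weak partial curve or effect only at the top dose; inactive means no dose-dependent translocation response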; further: potency means the concentration at half of the fitted maximal effect); conditions: U2OS GR-GFP nuclear translocation, laser cytometry, 2 h
# PC26 = test: qHTS profiling for inhibitors of Plasmodium falciparum proliferation (AID 504749); further: nearly all actives have a fitted effect of over 60% in size; further: potency means the concentration at half of the fitted maximal effect; conditions: P. falciparum in erythrocytes, SYBR Green DNA, 72 h; series mostly up to 28.7 µM
# Procedure, shortened: as §1
# [16] = HTS Assay for Allosteric Antagonists of the Human D2 Dopamine Receptor: Hit Validation in HTRF (AID 624455); conditions: Cells stably expressing D1 dopamine receptor, inhibition mode;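 further: stable D1 dopamine receptor cell line scored for blocking the D1 response; potency means the concentration at half of the fitted maximal effect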
# Procedure, shortened: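 Validation of hits used D1 receptor stably expressed in cells with HTRF detection of response inhibition; origin screen measured calcium flux following EC80 dopamine in a force-coupled, inducible Hek293 Trex D2 cell line.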
# [17] = ZIKV-mCherry secondary qHTS for Zika virus inhibitors (AID 1347158); further: top concentration of the series differs between compounds
# Procedure, shortened: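 This orthogonal imaging screen measured ZIKV-mCherry infection of Vero cells exposed to compound, MOI 1, 48-72 h. Percent infection came from segmented nuclei scored mCherry-positive above 3 SD of negative controls.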
# [18] = tested on: Zika virus NS2B-NS3 protease (linked construct); test: 384 well plate NINDS Rhodamine confirmatory qHTS for Zika virus inhibitors (AID 1347164); further: potency means the concentration at half of the fitted maximal effect; nearly all actives have a fitted effect of over 65% in size
# Procedure, shortened: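 Cleavage of Ac-LKRR-Rhodamine 110 (10 microM final) by linked protease (final 5, 30 or 60 nM) was followed as fluorescence at 485/538 nm after 25 min, room temperature, dark. Compounds preincubated ~15 min.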
smiles,measurement,setting,value
NS(=O)(=O)c1cccc2c1c([N+](=O)[O-])cc1nc(O)c(O)nc12,Potency,[1],"inconclusive: 10 µM [activator, partial curve]"
c1ccc2c(c1)CC(N1CCN(c3cccc4c3OCCO4)CC1)C2,Potency,[2],active: 15.8 µM
O=C(O)c1cc2cc(Cc3cccnc3)ccc2o1,Potency,DIV14,inactive
CCCCOC(=O)NS(=O)(=O)c1sc(CC(C)C)cc1-c1ccc(Cn2c(CC)nc3c(C)cc(C)nc32)cc1,Potency,[3],inactive
O=C(O)C1=CC(=C(c2ccc(O)c(C(=O)O)c2)c2ccc(O)c(C(=O)O)c2)C=CC1=O,Potency,[1],"inconclusive: 0.158 µM [activator, full curve, poor fit]"
same,Potency,[4],active: 2.51 µM
same,Potency,[5],"inconclusive: 0.794 µM [inhibitor, full curve, poor fit]"
Nc1ccc(-c2nc3ccc(-c4nc5ccc(N)cc5[nH]4)cc3[nH]2)cc1,Potency,[4],"inconclusive: 35.5 µM [inhibitor, single point]"
same,Potency,[6],"inconclusive: 11.2 µM [inhibitor, full curve]"
NCC(O)(CS(=O)(=O)O)c1ccc(Cl)cc1 (centres undefined),Potency,[7],inactive
O=C(CS(=O)Cc1ccco1)NC/C=C\COc1cc(CN2CCCCC2)ccn1 (centres undefined),Potency,[8],inactive
O=c1cc(-c2ccccc2)oc2c(O)c(O)ccc12,Potency,[9],active: 6.97 µM
same,Potency,[10],"inconclusive: 37.2 µM [cytotoxic, single point]"
same,Potency,[11],"inconclusive: 6.83 µM [inhibitor, full curve, poor fit]"
same,Potency,[12],"inconclusive: 11.7 µM [inhibitor, partial curve]"
CC(=O)OCC(=O)[C@@]1(O)CC[C@H]2[C@@H]3CCC4=CC(=O)CC[C@]4(C)[C@H]3C(=O)C[C@@]21C,Potency,[8],inactive
same,Potency,[13],inactive
O=C(NOCC1CC1)c1cc(Br)c(F)c(F)c1Nc1ccc(I)cc1Cl,Potency,[14],"inconclusive: 26.1 µM [cytotoxic, single point]"
Cc1cccc(C)c1OCC(N)C(C)C (centres undefined),Potency,[3],inactive
CCN(c1nc(N)c(C(=O)N=C(N)N)nc1Cl)C(C)C,Potency,[15],inconclusive: 44.9 µM [single point]
O=c1cc(O)cc(/C=C/c2ccc(O)c(O)c2)o1,Potency,[6],"inconclusive: 15.8 µM [inhibitor, partial curve, poor fit]"
Cn1cnc2c(NCc3ccccc3)nc(NCCO)nc21,Potency,[6],inactive
CN1C2CCC1CC(OC(=O)c1c[nH]c3ccccc13)C2 (centres undefined),Potency,DIV14,"inconclusive: 1.69 µM [inhibitor, partial curve, poor fit]"
same,Potency,PC26,"inconclusive: 4.26 µM [inhibitor, partial curve, poor fit]"
Nc1ncnc2c1nc(Br)n2C1OC2COP(=O)(O)O[C@@H]2C1O (some centres undefined),Potency,[16],active: 11.6 µM
CCCCCCC/C=C\CCCCCCCCC(=O)O,Potency,[5],active: 70.8 µM
Cc1nc(N=Nc2cc(S(=O)(=O)O)c3cc([N+](=O)[O-])cc(S(=O)(=O)O)c3c2)c(COP(=O)(O)O)c(C=O)c1O,Potency,[4],"inconclusive: 39.8 µM [inhibitor, single point]"
same,Potency,[17],inactive
same,Potency,[18],"inconclusive: 3.98 µM [inhibitor, full curve, poor fit]"
CCCCCCCCCCCCCCC[C@H](O)[C@H](N)CO,Potency,PC26,inactive
Cn1c(=O)c2[nH]c(-c3ccc(S(=O)(=O)O)cc3)nc2n(C)c1=O,Potency,[16],"inconclusive: 4.61 µM [inhibitor, partial curve, poor fit]"
same,Potency,[14],inactive
Cc1nc(N=Nc2ccc(S(=O)(=O)O)cc2S(=O)(=O)O)c(COP(=O)(O)O)c(C=O)c1O,Potency,[2],inactive
same,Potency,[18],active: 3.98 µM
CCCn1c(=O)c2c(ncn2C)n(CCC)c1=O,Potency,[15],inconclusive: 45.2 µM [single point]
CN1CCC2(CCN3CCc4c(oc5ccccc45)C3C2)N(C)C1=O (centres undefined),Potency,[16],"inconclusive: 3.26 µM [inhibitor, partial curve]"
CC(C)C[C@H](NC(=O)[C@H](O)[C@H](N)Cc1ccccc1)C(=O)O,Potency,[5],inactive
Nc1nc2ccc(Cl)cc2c2nc(-c3ccco3)nn12,Potency,[15],inconclusive: 45.5 µM [single point]
same,Potency,[18],"inconclusive: 316 µM [inhibitor, partial curve, poor fit]"
CC(C)NC[C@H](O)COc1ccc(CC(N)=O)cc1,Potency,PC26,inactive
C=CCN1CCc2c(cc(O)c(O)c2Br)[C@@H](c2ccccc2)C1,Potency,[18],active: 8.91 µM
same,Potency,[14],inactive
O=C(O)Cc1c[nH]c2ccc(O)cc12,Potency,[9],inactive
same,Potency,[10],inactive
same,Potency,[11],inactive
same,Potency,[12],inactive
CCCCCCCCCC(=O)NC(CN1CCOCC1)[C@H](O)c1ccccc1 (some centres undefined),Potency,[7],"inconclusive: 31.6 µM [activator, single point]"
C=C(C)[C@@H]1CC[C@]2(C(=O)O)CC[C@]3(C)[C@H](CC[C@@H]4[C@@]5(C)CC[C@H](O)C(C)(C)[C@@H]5CC[C@]43C)[C@@H]12,Potency,[8],"inconclusive: 13.2 µM [cytotoxic, partial curve]"
same,Potency,[9],active: 6.21 µM
same,Potency,[10],"inconclusive: 14.8 µM [cytotoxic, partial curve]"
same,Potency,[11],"inconclusive: 3.84 µM [inhibitor, full curve]"
same,Potency,[12],"inconclusive: 3.69 µM [inhibitor, full curve]"
CCCc1c(OCCCOc2ccc(OCC(=O)O)cc2)ccc(C(C)=O)c1O,Potency,[17],inactive
CC(C)NC[C@H](O)c1ccc(O)c(O)c1,Potency,[16],"inconclusive: 2.06 µM [inhibitor, partial curve] and inconclusive: 5.17 µM [inhibitor, partial curve, poor fit]"
CC1(C)C(\C=C/C=C\C=C/C=C2/N(CCCCS(=O)(=O)O)c3ccc4ccccc4c3C2(C)C)=[N+](CCCCS(=O)(=O)[O-])c2ccc3ccccc3c21,Potency,[17],inactive
O=c1ccn([C@@H]2O[C@H](COP(=O)(O)OP(=O)(O)O)[C@@H](O)[C@H]2O)c(=O)[nH]1,Potency,[7],inactive
O=C(O)[C@H]1NCCC[C@H]1C(=O)O,Potency,[3],inactive
CCN1CCN(C(=O)N[C@@H](C(=O)N[C@@H]2C(=O)N3[C@@H]2SC(C)(C)[C@H]3C(=O)O)c2ccccc2)C(=O)C1=O,Potency,[13],inactive
C[C@@H]1O[C@@H](O[C@H]2CC[C@@]3(C)[C@H](CC[C@@H]4[C@H]3C[C@@H](O)[C@]3(C)[C@@H](C5=CC(=O)OC5)CC[C@]43O)C2)C[C@H](O)[C@@H]1O[C@H]1C[C@H](O)[C@H](O[C@H]2C[C@H](O)[C@@H](O)[C@@H](C)O2)[C@H](C)O1 (stereo in doubt),Potency,[13],active: 0.14 µM
